Data as given in PubChem BioAssay AID493246 (Drosophila RNAi Screening Center, 2011)
Purpose: 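Identify essential fly genes by loss of cell viability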 (primary screen). Cell system: Drosophila Kc and S2R+ cells. Reagent: long dsRNA against Drosophila genes. Detection: 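Cell number per well after knock-down, printed as raw plate values; calls were based on per-plate z-scores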. Scale: Kc cell number and S2R+ cell number: higher = more cells remaining. Call rule: 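Active when the per-plate z-score of cell number is 3 or more in the direction of fewer cells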.
The screen tested about 21,000 reagents; this is an unselected part of those with a known target gene and a result. Over the whole deposit, 429 (2%) are marked active. 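Values are raw and not normalised between plates; calls rest on per-plate z-scores that were not deposited.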 A plus sign joins genes that one reagent is predicted to hit. Not stated in the record: the amount of reagent, the time to read-out.

target | DRSC id | Kc cell number, rep 1 | Kc cell number, rep 2 | S2R+ cell number, rep 1 | S2R+ cell number, rep 2 | Call
cas (castor) | DRSC12373 | 1.19e6 | 1.39e6 | 1.23e6 | 1.28e6 | inactive
CG12229 | DRSC09868 | 1.43e6 | 1.37e6 | 1.25e6 | 1.31e6 | inactive
mIF2 (mitochondrial translation initiation factor 2) | DRSC14510 | 1.66e6 | 1.70e6 | 1.09e6 | 1.23e6 | inactive
CG6276 | DRSC16007 | 1.54e6 | 1.64e6 | 1.29e6 | 1.40e6 | inactive
DIP-gamma (Dpr-interacting protein gamma) | DRSC14873 | 5.01e5 | – | 8.05e5 | – | inactive
CG6685 | DRSC10695 | 1.24e6 | 1.22e6 | 1.33e6 | 1.42e6 | inactive
Rtc1 | DRSC20285 | 5.06e5 | – | 8.58e5 | – | inactive
norpA (no receptor potential A) | DRSC18806 | 5.26e5 | – | 7.73e5 | – | inactive
Nin (Ninein) | DRSC02007 | 1.22e6 | 1.40e6 | 5.91e5 | 5.31e5 | inactive
CG14130 | DRSC10134 | 1.58e6 | 1.76e6 | 1.23e6 | 1.32e6 | inactive
PH4alphaNE3 (prolyl-4-hydroxylase-alpha NE3) | DRSC16541 | 5.69e5 | – | 8.44e5 | – | inactive
ssp3 (short spindle 3) | DRSC02669 | 1.55e6 | 1.74e6 | 1.34e6 | 3.89e5 | inactive
ssp3 (short spindle 3) | DRSC02670 | 1.82e6 | 1.85e6 | 1.20e6 | 1.94e5 | inactive
Zip88E (Zinc/iron regulated transporter-related protein 88E) | DRSC15562 | 1.30e6 | 1.53e6 | 9.48e5 | 1.03e6 | inactive
Pms2 | DRSC07511 | 1.08e6 | 1.04e6 | 7.72e5 | 6.49e5 | inactive
RhoGAP68F (Rho GTPase activating protein at 68F) | DRSC10717 | 1.41e6 | 1.53e6 | 1.24e6 | 1.02e6 | inactive
Hsp70Bb + Hsp70Ba + Hsp70Bc + 1 more | DRSC21247 | 1.46e6 | 1.46e6 | 7.50e5 | 8.35e5 | inactive
Hsp70Bb + Hsp70Ba + Hsp70Bc + 1 more | DRSC21248 | 1.45e6 | 1.42e6 | 7.27e5 | 8.28e5 | inactive
bc10 | DRSC11326 | 1.32e6 | 1.28e6 | 1.16e6 | 1.24e6 | inactive
alpha-Man-IIa (alpha-Mannosidase class II a) | DRSC15393 | 1.54e6 | 1.52e6 | 1.29e6 | 1.41e6 | inactive
CG10019 | DRSC00279 | 1.53e6 | 1.46e6 | 1.03e6 | 1.19e6 | inactive
List (Lithium-inducible SLC6 transporter) | DRSC06520 | 1.61e6 | 1.68e6 | 1.19e6 | 1.34e6 | inactive
CG9521 | DRSC20196 | 1.47e6 | 1.50e6 | 1.08e6 | 1.19e6 | inactive
TwdlJ (TweedleJ) | DRSC15812 | 1.60e6 | 1.66e6 | 9.63e5 | 1.20e6 | inactive
CG9555 | DRSC03264 | 1.45e6 | 1.52e6 | 1.19e6 | 1.33e6 | inactive
CG11843 | DRSC14401 | 1.52e6 | 1.56e6 | 1.11e6 | 1.22e6 | inactive
Ten-a (Tenascin accessory) | DRSC18924 | 1.15e6 | 1.50e6 | 1.09e6 | 1.09e6 | inactive
Ten-a (Tenascin accessory) | DRSC19496 | 9.21e5 | 8.29e5 | 4.74e5 | 5.92e5 | active
Ten-a (Tenascin accessory) | DRSC19700 | 1.51e6 | 1.57e6 | 1.09e6 | 1.28e6 | inactive
Ten-a (Tenascin accessory) | DRSC19793 | 1.66e6 | 1.56e6 | 1.14e6 | 1.25e6 | inactive
Ten-a (Tenascin accessory) | DRSC19864 | 1.62e6 | 1.51e6 | 1.15e6 | 1.29e6 | inactive
Ten-a (Tenascin accessory) | DRSC19865 | 1.67e6 | 1.57e6 | 1.14e6 | 1.29e6 | inactive
Ten-a (Tenascin accessory) | DRSC20290 | 1.60e6 | 1.56e6 | 1.11e6 | 1.26e6 | inactive
Atg8b (Autophagy-related 8b) | DRSC14501 | 1.45e6 | 1.48e6 | 9.59e5 | 1.17e6 | inactive
CG10433 | DRSC04068 | 1.39e6 | 1.49e6 | 1.24e6 | 1.27e6 | inactive
Cyp12e1 (Cytochrome P450 12e1) | DRSC16622 | 1.54e6 | 1.55e6 | 1.39e6 | 1.44e6 | inactive
CG8372 | DRSC03086 | 1.30e6 | 1.35e6 | 6.43e5 | 8.98e5 | inactive
LpR1 (Lipophorin receptor 1) | DRSC15665 | 5.35e5 | – | 7.78e5 | – | inactive
LpR1 (Lipophorin receptor 1) | DRSC15669 | 1.42e6 | 1.54e6 | 9.54e5 | 1.05e6 | inactive
LpR1 (Lipophorin receptor 1) | DRSC15670 | 1.58e6 | 1.64e6 | 9.92e5 | 1.07e6 | inactive
CG4293 | DRSC18557 | 5.14e5 | – | 8.25e5 | – | inactive
Npc1a (Niemann-Pick type C-1a) | DRSC03378 | 1.56e6 | 1.59e6 | 1.17e6 | 1.30e6 | inactive
CG10151 | DRSC05974 | 1.34e6 | 1.45e6 | 1.04e6 | 1.07e6 | inactive
CG42471 | DRSC01210 | 1.55e6 | 1.62e6 | 1.07e6 | 1.14e6 | inactive
CG3690 | DRSC18170 | 1.57e6 | 1.58e6 | 1.07e6 | 1.20e6 | inactive
CG3690 | DRSC18641 | 1.58e6 | 1.55e6 | 1.07e6 | 1.17e6 | inactive

Copied from the list.
Under “S2R+ cell number, rep 1”, Zip88E (Zinc/iron regulated transporter-related protein 88E) [DRSC15562] has 9.48e5
DIP-gamma (Dpr-interacting protein gamma) [DRSC14873], Call = inactive
For “S2R+ cell number, rep 2”, LpR1 (Lipophorin receptor 1) [DRSC15669] shows 1.05e6
PH4alphaNE3 (prolyl-4-hydroxylase-alpha NE3) [DRSC16541], Call → inactive
CG8372 [DRSC03086], Call → inactive
norpA (no receptor potential A) [DRSC18806], S2R+ cell number, rep 1: 7.73e5

Continued.
target | DRSC id | Kc cell number, rep 1 | Kc cell number, rep 2 | S2R+ cell number, rep 1 | S2R+ cell number, rep 2 | Call
Eglp4 (Entomoglyceroporin 4) | DRSC04438 | 1.52e6 | 1.55e6 | 1.22e6 | 1.31e6 | inactive
CG43693 | DRSC09086 | 1.59e6 | 1.78e6 | 1.24e6 | 1.35e6 | inactive
CG43693 | DRSC10625 | 1.33e6 | 1.37e6 | 1.15e6 | 1.12e6 | inactive
CG42795 | DRSC12772 | 1.72e6 | 1.85e6 | 1.11e6 | 1.44e6 | inactive
CG42795 | DRSC15533 | 1.45e6 | 1.43e6 | 1.16e6 | 1.26e6 | inactive
Kdm2 (Lysine demethylase 2) | DRSC14286 | 1.71e6 | 1.86e6 | 1.41e6 | 1.49e6 | inactive
ash1 (absent, small, or homeotic discs 1) | DRSC11325 | 1.49e6 | 1.59e6 | 1.03e6 | 1.08e6 | inactive
Mlc1 (Myosin alkali light chain 1) | DRSC16740 | 1.48e6 | 1.51e6 | 9.00e5 | 9.94e5 | inactive
CG2608 | DRSC02709 | 1.28e6 | 1.32e6 | 1.15e6 | 1.25e6 | inactive
Hmgs (HMG Coenzyme A synthase) | DRSC06866 | 1.48e6 | 1.53e6 | 9.82e5 | 1.10e6 | inactive
CG3919 | DRSC10389 | 1.85e6 | 1.93e6 | 1.19e6 | 1.30e6 | inactive
dx (deltex) | DRSC18767 | 1.43e6 | 1.42e6 | 1.01e6 | 1.10e6 | inactive
Hr83 (Hormone receptor 83) | DRSC12521 | 1.53e6 | 1.68e6 | 1.30e6 | 1.35e6 | inactive
CG13748 | DRSC06419 | 1.49e6 | 1.60e6 | 1.23e6 | 1.27e6 | inactive
CG31999 | DRSC17131 | 1.45e6 | 1.44e6 | 1.02e6 | 1.10e6 | inactive
CG31999 | DRSC17133 | 1.44e6 | 1.40e6 | 9.91e5 | 1.09e6 | inactive
Tpc2 | DRSC04322 | 1.65e6 | 1.57e6 | 1.49e6 | 1.65e6 | inactive
Smg6 | DRSC16029 | 1.65e6 | 1.64e6 | 1.32e6 | 1.38e6 | inactive
Dh44 (Diuretic hormone 44) | DRSC12747 | 1.52e6 | 1.77e6 | 1.06e6 | 1.30e6 | inactive
Dh44 (Diuretic hormone 44) | DRSC16409 | 1.40e6 | 1.42e6 | 1.22e6 | 1.33e6 | inactive
CG10581 | DRSC11623 | 1.66e6 | 1.69e6 | 1.38e6 | 1.51e6 | inactive
Arc42 (Activator-recruited cofactor subunit 42) | DRSC14340 | 1.23e6 | 1.45e6 | 1.08e6 | 1.11e6 | inactive
Arc42 (Activator-recruited cofactor subunit 42) | DRSC15627 | 1.27e6 | 1.43e6 | 1.06e6 | 1.08e6 | inactive
bab2 (bric a brac 2) | DRSC08150 | 1.47e6 | 1.28e6 | 9.55e5 | 1.24e6 | inactive
bab2 (bric a brac 2) | DRSC08380 | 1.35e6 | 1.16e6 | 7.42e5 | 9.11e5 | inactive
Elys | DRSC19571 | 1.51e6 | 1.59e6 | 9.58e5 | 1.07e6 | inactive
Gr8a (Gustatory receptor 8a) | DRSC18043 | 1.62e6 | 1.56e6 | 9.81e5 | 1.14e6 | inactive
ninaA (neither inactivation nor afterpotential A) | DRSC00830 | 1.33e6 | 1.35e6 | 9.33e5 | 1.07e6 | inactive
Ublcp1 | DRSC14149 | 1.58e6 | 1.56e6 | 1.02e6 | 1.10e6 | inactive
